The source of these data is PubChem BioAssay AID493014 (National Center for Advancing Translational Sciences (NCATS), 2011).

The test can be described thus: qHTS Assay to Find Inhibitors of Chronic Active B-Cell Receptor Signaling. The conditions noted are these: ABC-DLBCL IkBa-CBG/CBR reporter, luminescence ratio (green luciferase fused to IkBa over red control in TMD8 lymphoma cells), 4 h. In outline: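 Cell line TMD8 (human ABC DLBCL), stably expressing tet-inducible CBG68-IkBa fusion and CBR; IMDM/0.5% FBS; cpd up to 46 uM; dox induction, 4 h, 37C/5% CO2; dual luminescence; green/red ratio; MG132 control.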

The mark [1] stands for this setting: measured here: CBR red luminescence, cell number.

Some of the results follow. These are further read-outs of the screen, such as a control signal, another cell line or another target. No call is given for them. Compounds called inactive in the main read-out are mostly missing here. Words in brackets tell the shape of the fitted curve; partial curves, single points and poor fits give uncertain potencies.

For `O=C(NNC(=O)c1cccc(Br)c1)C(=O)N1CCCCC1`, the AC50 under setting [1] was 29.1 µM [rising, single point]. Regarding `O=C(O)Cn1c(-c2cscn2)nc2ccccc21`, under setting [1], the AC50 is 35.5 µM [rising, single point]. As to `CC(C)(C)OC(=O)NCCCCCNC(=O)c1nc[nH]c1C(=O)NCCCCCNC(=O)OC(C)(C)C`, under setting [1], the AC50 is 20.6 µM [falling, single point].

`CC(C)c1ccc(CNCCCSc2ncccn2)cc1`: under setting [1], the AC50 is 25.1 µM [falling, single point].

As to `Cc1nn(-c2ccccc2)c(=S)c2ccccc12`, the AC50 by setting is: under setting [1], 5.17 µM [rising, full curve, poor fit]; (measured here: IkBa-CBG green luminescence) 16.4 µM [falling, single point]. For the molecule `O=C(O)CCC(=O)Nc1ccc(-c2csc(Nc3cccc4ccccc34)n2)cc1`, under setting [1], the concentration at half-maximal activity (AC50) is 5.17 µM [falling, partial curve]. As to `O=C(CCCc1ccccc1)NCc1ccccc1`, the concentration at half-maximal activity (AC50) under setting [1] is 31.6 µM [falling, single point]. Same read-out and setting: the same measure for `COc1ccc(C(=O)n2nc(C)cc2C)cc1Br`: 7.31 µM [falling, partial curve, poor fit]; for `COc1ccc(N(CC(O)Cn2nnc3ccccc32)S(=O)(=O)c2ccc(C)cc2)cc1` (configuration not stated): 3.55 µM [rising, single point]; for `Cc1noc(C)c1COc1ccccc1C(=O)NNC(=O)c1ccccc1`: 3.66 µM [rising, partial curve, poor fit]. For `Cc1ccc(NC(=O)c2cc(-c3ccccc3O)n[nH]2)cc1C`, the AC50 under setting [1] was 12.6 µM [falling, partial curve, poor fit]. Consider `O=C(CSc1nc2ccccc2s1)N1CCN(C(=O)c2ccco2)CC1`, for which the AC50 under setting [1] was 29.1 µM [falling, single point]. For `NC(=O)c1oc2ccccc2c1NC(=O)c1ccc([N+](=O)[O-])o1`, the AC50 under setting [1] was 0.126 µM [falling, full curve, poor fit]. In the case of `CN(C)CCn1c(C(=O)Nc2ccccc2)cc2ccccc21`, the half-maximal activity concentration (AC50) under setting [1] is 3.98 µM [falling, partial curve, poor fit].

With `CCOC(=O)c1ccc(NC(=S)N2CCN(Cc3ccccc3)CC2)cc1`, the half-maximal activity concentration (AC50) under setting [1] was 16.4 µM [rising, partial curve, poor fit].

Take `CCN1CCCC1CNC(=O)c1[nH]c2ccc(OC)cc2c1C` (configuration not stated): under setting [1], the half-maximal activity concentration (AC50) is 25.1 µM [falling, single point]. Same read-out and setting: the same measure for `O=C(COC(=O)c1ccc([N+](=O)[O-])s1)c1ccc[nH]1`: 18.4 µM [rising, partial curve, poor fit]. Consider `CC(=O)NC(=S)Nc1ccc(NC(=S)NC(=O)c2ccc([N+](=O)[O-])cc2)cc1`, for which, under setting [1], the AC50 was 1 µM [rising, partial curve]. Take `CCOc1cccc(C(=O)NC2CCCCC2)c1`: the AC50 under setting [1] is 9.2 µM [falling, full curve, poor fit]. On the same count and under the same terms, the same measure for `CN1CCN(c2ccccc2NC(=O)c2ccc(-c3ccccc3)cc2)CC1`: 23.1 µM [falling, single point].

Take `O=C(Nc1cc(Br)ccc1O)c1cc(-c2ccccc2)on1`: the concentration at half-maximal activity (AC50) under setting [1] was 35.5 µM [falling, single point]. `Cc1onc(-c2ccccc2Cl)c1C(=O)NC(=S)Nc1ccc(C(C)C)cc1`: the concentration at half-maximal activity (AC50) under setting [1] was 0.355 µM [rising, full curve, poor fit]. On to `CCN(CC)S(=O)(=O)c1ccc(OC)c(NC(=O)c2ccc(-n3cncn3)c([N+](=O)[O-])c2)c1`, for which, under setting [1], the AC50 is 0.164 µM [rising, full curve, poor fit]. On to `COc1ccc(C(=O)Nc2c(C)cc(C)cc2C)cc1OC`, for which the AC50 under setting [1] was 35.5 µM [rising, single point]. In the case of `Cc1cc(C)n(CCCN2CCC(C(=O)Nc3cccc(-c4cccc(F)c4)c3)CC2)n1`, the AC50 under setting [1] was 35.5 µM [falling, single point]. For the molecule `O=C(NC1CCN(Cc2ccccc2)CC1)c1cccc(S(=O)(=O)Nc2ccc(F)cc2)c1`, under setting [1], the AC50 was 23.1 µM [falling, partial curve]. For `O=C(/C=C/c1ccccc1)Nc1ccc2c(c1)OCCO2`, the half-maximal activity concentration (AC50) under setting [1] is 8.91 µM [falling, partial curve, poor fit]. With `O=C(Nc1cccc(Cl)c1)Nc1ccc(Br)cc1F`, the concentration at half-maximal activity (AC50) under setting [1] is 16.4 µM [rising, partial curve, poor fit]. As to `Cc1ccc(NC(=S)NC(=O)C2CC2)c(C)c1`, the AC50 under setting [1] is 6.31 µM [rising, partial curve, poor fit].

For `Cn1cnc(Sc2ncnc3nc[nH]c23)c1[N+](=O)[O-]`, the AC50 under setting [1] was 10 µM [rising, partial curve, poor fit]. On the same count and under the same terms, to `CC1CCC(C(C)C)C(OC(=O)CSc2nc(N)cc(=O)[nH]2)C1` (configuration not stated) belongs 1 µM [rising, full curve, poor fit]; to `O=S(=O)(C/C(=C/CO)S(=O)(=O)c1ccccc1)c1ccccc1`, 1 µM [falling, full curve].

Take `COC(=O)C1CCN(C(=O)COC(=O)CC(NC(C)=O)c2ccccc2)CC1` (configuration not stated): the AC50 under setting [1] is 32.6 µM [falling, single point]. As for `COc1cccc(NC(=O)Nc2nnc(-c3ccccc3SCc3ccccc3)s2)c1`, the AC50 under setting [1] is 6.51 µM [rising, single point]. On the same count and under the same terms, the same measure for `Cc1ccc(SCC(=O)OCC(=O)N(C)CC(=O)Nc2ccc(F)cc2)cc1`: 1.84 µM [falling, partial curve, poor fit]; for `c1cc2[nH]snc2c2nc(C3CC3)nc12`: 35.5 µM [falling, single point]; for `O=C1NC(=S)CN1c1ccccc1`: 11.2 µM [falling, partial curve]. Regarding `C=CCSC1=C(C#N)C(c2ccccc2Cl)C(C(=O)c2cccs2)C(O)(C(F)(F)F)N1` (configuration not stated), under setting [1], the concentration at half-maximal activity (AC50) is 20.6 µM [falling, single point]. With `CC1Cn2c(nc(=O)c3c2NCN(CCc2ccccc2)C3)S1` (configuration not stated), the concentration at half-maximal activity (AC50) under setting [1] was 25.1 µM [rising, partial curve, poor fit]. Consider `CCCOC(=O)c1ccc(NC(=O)C2C3CCC(C3)C2C(=O)O)cc1` (configuration not stated), for which the AC50 under setting [1] is 0.731 µM [rising, partial curve, poor fit]. As for `CN(C)S(=O)(=O)N1CCC(Oc2cccc(C(=O)NC3CCCCCC3)c2)CC1`, under setting [1], the AC50 is 11.2 µM [falling, partial curve]. Same read-out and setting: the same measure for `CCOC(=O)N1CCN(C(=O)c2ccc(CN(c3ccc(C)c(C)c3)S(C)(=O)=O)cc2)CC1`: 22.4 µM [falling, single point]; for `O=C(COC(=O)CCc1nc2ccccc2s1)NCc1ccco1`: 3.98 µM [rising, single point].

For `CCOCCn1c(C(C)O)nc2ccccc21` (configuration not stated), under setting [1], the half-maximal activity concentration (AC50) is 0.251 µM [rising, full curve, poor fit].

As for `Cc1ccc(/C=N/NC(=O)c2ccc(NC(=O)c3ccccc3Cl)cc2)o1`, the AC50 under setting [1] is 35.5 µM [falling, partial curve, poor fit]. As to `CC(Sc1nnc2c(n1)C1CCC2(C)C1(C)C)C(=O)Nc1ccccc1` (configuration not stated), the AC50 under setting [1] is 3.66 µM [rising, partial curve, poor fit]. As for `CC(=O)Nc1ccc(Oc2sc(C(=O)c3ccccc3)c(N)c2C#N)cc1`, the concentration at half-maximal activity (AC50) under setting [1] is 8.91 µM [falling, partial curve].

In the case of `COc1ccc(/C=C(/C#N)C(=O)Nc2ccc(O)cc2)cc1C(=O)O`, the concentration at half-maximal activity (AC50) under setting [1] is 11.2 µM [falling, single point]. For the molecule `O=C(COC(=O)c1ccc(F)cc1)NCC1COc2ccccc2O1` (configuration not stated), the concentration at half-maximal activity (AC50) under setting [1] was 20.6 µM [falling, single point]. For the molecule `CCOC(=O)c1c(C)[nH]c(C(=O)C(C)OC(=O)c2cccc(OCc3c(C)noc3C)c2)c1C` (configuration not stated), the concentration at half-maximal activity (AC50) under setting [1] is 3.55 µM [falling, full curve]. Consider `Cc1ccc2[nH]c(C(=O)Nc3ccc(F)cc3)cc2c1`, for which, under setting [1], the concentration at half-maximal activity (AC50) is 15.8 µM [falling, partial curve]. In the case of `CCCCOc1ccc(NC(=O)Nc2nnc(C)s2)cc1`, under setting [1], the concentration at half-maximal activity (AC50) is 14.1 µM [rising, partial curve].

Take `O=C(CCCc1ccccc1)NCc1ccccc1Cl`: under setting [1], the concentration at half-maximal activity (AC50) was 7.94 µM [falling, partial curve]. In the case of `FC(F)(F)c1nnc2ccc(NCn3nnc4ccccc43)nn12`, the AC50 under setting [1] is 14.6 µM [falling, partial curve]. Regarding `O=C(c1cc2cc(F)ccc2[nH]1)N1CCC(Cc2ccccc2)CC1`, the AC50 under setting [1] is 35.5 µM [rising, single point]. In the case of `Fc1cccc(Cl)c1/C=C/c1cnc2ccccc2n1`, the AC50 under setting [1] was 8.91 µM [rising, partial curve, poor fit]. In the case of `O=C(Nc1ccccc1O)c1ccccc1O`, under setting [1], the half-maximal activity concentration (AC50) was 11.2 µM [falling, single point]. Turning to `Cc1c(C(=O)NC(C)c2ccccn2)oc2c(Cl)cccc12` (configuration not stated), the AC50 under setting [1] was 29.1 µM [rising, single point]. For the molecule `Cc1occc1C(=O)N/N=C/C=C/c1ccc(N(C)C)cc1`, under setting [1], the AC50 is 35.5 µM [falling, partial curve, poor fit]. `O=C(NC1CCCCC1)NC1CC2CCC(C1)N2C(=O)NCc1ccccc1` (configuration not stated): under setting [1], the concentration at half-maximal activity (AC50) is 18.4 µM [rising, single point]. In the case of `COc1ccccc1N1CCN(C(=O)CCNC(=O)Cn2ccc3ccccc3c2=O)CC1`, under setting [1], the concentration at half-maximal activity (AC50) is 2.24 µM [rising, partial curve, poor fit]. On the same count and under the same terms, to `Cc1c(C(=O)NCc2ccccc2)c(-c2ccccc2)nn1-c1ccccc1` belongs 23.1 µM [falling, single point].

`COc1cccc(/C=N/NC(=O)C(=O)N2CCCC2)c1O`: under setting [1], the AC50 is 25.1 µM [falling, single point]. On the same count and under the same terms, the same measure for `Cc1cc[n+](-c2[nH]c(=O)sc2/C=N/NC(=O)c2ccccc2[O-])cc1C`: 18.4 µM [falling, single point]; for `C/C(CC(=O)N1CCCC1)=N\NC(=O)c1cc2ccccc2cc1O`: 10 µM [falling, partial curve]. Regarding `COc1cccc(C(=O)Nc2ccc(NC(C)=O)cc2)c1`, under setting [1], the half-maximal activity concentration (AC50) was 5.8 µM [falling, partial curve, poor fit].

The term AC50 denotes the concentration at which the activity in the assay is half-maximal.
